Reference: publication doi:10.1101/2022.06.22.497210
Read-outs that look alike come from different tables or passages of the source. Results are given in words; binding and its absence hold for the method and conditions named. In cells and extracts the contact can be indirect. Here binding means that the protein was enriched with, or labelled near, the bait; the list need not be complete.

Amino acid sequences for entries named in this document (tags omitted). A change or cut given only in a name is not applied to a line headed by its entry. Residues count along the entry.
UniProt O55242: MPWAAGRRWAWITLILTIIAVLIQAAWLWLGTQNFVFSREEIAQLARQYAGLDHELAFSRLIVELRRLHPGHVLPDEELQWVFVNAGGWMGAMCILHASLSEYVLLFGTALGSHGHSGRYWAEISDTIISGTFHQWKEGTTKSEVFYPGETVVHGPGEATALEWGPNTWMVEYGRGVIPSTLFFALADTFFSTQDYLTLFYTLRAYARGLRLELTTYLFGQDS
UniProt P27824, residues 21-592: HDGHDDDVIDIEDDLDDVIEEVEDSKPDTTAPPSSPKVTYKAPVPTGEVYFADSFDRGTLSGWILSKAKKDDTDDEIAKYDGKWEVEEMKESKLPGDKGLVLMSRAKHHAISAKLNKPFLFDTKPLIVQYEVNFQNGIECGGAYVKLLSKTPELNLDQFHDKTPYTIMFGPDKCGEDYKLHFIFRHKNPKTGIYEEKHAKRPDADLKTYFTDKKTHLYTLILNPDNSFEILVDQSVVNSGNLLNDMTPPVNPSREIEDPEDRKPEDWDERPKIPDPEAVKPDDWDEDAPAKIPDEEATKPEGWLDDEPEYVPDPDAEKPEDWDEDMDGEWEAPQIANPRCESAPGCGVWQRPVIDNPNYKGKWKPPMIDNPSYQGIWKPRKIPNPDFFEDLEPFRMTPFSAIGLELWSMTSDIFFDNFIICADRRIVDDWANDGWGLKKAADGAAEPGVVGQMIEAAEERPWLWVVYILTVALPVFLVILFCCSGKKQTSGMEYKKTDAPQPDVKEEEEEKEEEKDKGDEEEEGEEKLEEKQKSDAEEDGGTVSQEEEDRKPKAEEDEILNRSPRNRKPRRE
UniProt Q99715, residues 24-3063: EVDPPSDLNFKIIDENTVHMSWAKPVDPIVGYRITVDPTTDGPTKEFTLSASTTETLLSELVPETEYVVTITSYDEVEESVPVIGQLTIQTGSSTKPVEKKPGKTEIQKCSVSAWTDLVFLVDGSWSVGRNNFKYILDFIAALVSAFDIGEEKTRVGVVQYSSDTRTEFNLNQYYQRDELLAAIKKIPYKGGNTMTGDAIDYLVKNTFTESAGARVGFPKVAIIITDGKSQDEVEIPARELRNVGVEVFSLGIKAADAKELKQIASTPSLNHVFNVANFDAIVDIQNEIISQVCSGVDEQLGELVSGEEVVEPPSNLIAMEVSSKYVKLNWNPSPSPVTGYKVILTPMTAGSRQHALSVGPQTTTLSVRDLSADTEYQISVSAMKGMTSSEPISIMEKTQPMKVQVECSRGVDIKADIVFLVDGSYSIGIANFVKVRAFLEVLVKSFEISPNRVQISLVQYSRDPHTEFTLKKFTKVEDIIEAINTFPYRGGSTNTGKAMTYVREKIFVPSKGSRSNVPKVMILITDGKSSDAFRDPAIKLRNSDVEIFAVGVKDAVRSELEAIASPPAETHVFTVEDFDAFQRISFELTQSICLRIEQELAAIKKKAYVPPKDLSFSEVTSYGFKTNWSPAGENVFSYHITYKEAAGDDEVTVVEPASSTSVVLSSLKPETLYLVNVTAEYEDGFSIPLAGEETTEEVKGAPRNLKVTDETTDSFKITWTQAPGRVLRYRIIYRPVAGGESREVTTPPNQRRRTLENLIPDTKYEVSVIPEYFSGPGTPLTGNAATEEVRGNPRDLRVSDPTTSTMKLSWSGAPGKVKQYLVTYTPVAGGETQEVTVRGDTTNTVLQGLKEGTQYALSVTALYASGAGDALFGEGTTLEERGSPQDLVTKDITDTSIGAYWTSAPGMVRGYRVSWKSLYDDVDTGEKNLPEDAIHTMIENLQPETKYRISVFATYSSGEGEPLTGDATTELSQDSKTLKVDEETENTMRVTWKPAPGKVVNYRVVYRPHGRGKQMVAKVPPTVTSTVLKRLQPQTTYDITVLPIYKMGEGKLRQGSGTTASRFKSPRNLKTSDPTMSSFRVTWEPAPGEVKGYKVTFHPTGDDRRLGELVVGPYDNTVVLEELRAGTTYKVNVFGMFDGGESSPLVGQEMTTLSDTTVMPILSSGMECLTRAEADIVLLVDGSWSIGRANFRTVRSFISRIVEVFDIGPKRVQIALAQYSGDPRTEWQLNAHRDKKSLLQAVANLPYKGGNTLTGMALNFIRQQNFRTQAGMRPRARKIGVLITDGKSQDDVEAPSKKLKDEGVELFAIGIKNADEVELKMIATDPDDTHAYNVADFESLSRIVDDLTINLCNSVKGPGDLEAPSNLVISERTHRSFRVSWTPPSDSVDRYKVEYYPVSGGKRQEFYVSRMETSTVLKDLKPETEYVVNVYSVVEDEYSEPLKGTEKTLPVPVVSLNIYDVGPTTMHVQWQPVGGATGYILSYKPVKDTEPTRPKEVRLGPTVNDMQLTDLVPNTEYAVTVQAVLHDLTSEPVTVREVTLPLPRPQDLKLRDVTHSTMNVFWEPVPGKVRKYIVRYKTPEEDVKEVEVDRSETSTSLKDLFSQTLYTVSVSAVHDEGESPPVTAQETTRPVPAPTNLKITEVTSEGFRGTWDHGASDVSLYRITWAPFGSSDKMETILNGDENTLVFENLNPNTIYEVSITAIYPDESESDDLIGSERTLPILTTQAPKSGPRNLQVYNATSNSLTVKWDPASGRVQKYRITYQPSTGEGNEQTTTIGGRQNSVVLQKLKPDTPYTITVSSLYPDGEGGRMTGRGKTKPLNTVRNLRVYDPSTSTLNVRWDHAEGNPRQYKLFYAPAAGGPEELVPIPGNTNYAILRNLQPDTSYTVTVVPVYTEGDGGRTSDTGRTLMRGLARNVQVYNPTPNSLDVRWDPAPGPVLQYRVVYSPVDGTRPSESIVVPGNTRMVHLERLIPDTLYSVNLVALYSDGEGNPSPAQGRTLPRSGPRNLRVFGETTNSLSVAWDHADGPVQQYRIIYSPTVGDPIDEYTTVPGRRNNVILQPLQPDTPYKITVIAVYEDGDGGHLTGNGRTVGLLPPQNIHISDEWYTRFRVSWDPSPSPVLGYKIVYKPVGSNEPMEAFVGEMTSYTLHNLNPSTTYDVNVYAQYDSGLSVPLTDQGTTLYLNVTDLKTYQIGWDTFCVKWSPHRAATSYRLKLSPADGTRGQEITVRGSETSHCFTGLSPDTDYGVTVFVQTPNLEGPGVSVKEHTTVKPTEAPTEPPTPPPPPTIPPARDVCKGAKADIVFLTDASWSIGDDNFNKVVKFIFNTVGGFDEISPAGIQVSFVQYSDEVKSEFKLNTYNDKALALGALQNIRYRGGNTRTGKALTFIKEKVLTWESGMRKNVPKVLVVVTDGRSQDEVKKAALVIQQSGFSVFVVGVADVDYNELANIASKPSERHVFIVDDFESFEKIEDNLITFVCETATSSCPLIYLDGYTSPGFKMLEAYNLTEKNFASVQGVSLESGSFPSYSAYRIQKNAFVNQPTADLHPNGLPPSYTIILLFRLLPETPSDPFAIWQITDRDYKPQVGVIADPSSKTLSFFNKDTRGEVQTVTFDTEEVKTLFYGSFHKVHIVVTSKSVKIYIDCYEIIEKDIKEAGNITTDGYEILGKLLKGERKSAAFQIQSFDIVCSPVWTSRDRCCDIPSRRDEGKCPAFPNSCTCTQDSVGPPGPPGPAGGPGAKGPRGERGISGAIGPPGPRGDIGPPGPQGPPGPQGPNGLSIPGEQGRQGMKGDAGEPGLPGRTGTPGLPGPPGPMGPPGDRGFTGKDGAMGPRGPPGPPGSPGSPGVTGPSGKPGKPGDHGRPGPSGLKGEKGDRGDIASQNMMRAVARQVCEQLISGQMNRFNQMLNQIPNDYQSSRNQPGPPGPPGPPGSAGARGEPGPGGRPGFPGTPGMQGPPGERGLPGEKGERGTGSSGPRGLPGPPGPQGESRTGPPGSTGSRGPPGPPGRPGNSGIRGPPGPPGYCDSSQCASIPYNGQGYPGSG
UniProt P11021, residues 19-654: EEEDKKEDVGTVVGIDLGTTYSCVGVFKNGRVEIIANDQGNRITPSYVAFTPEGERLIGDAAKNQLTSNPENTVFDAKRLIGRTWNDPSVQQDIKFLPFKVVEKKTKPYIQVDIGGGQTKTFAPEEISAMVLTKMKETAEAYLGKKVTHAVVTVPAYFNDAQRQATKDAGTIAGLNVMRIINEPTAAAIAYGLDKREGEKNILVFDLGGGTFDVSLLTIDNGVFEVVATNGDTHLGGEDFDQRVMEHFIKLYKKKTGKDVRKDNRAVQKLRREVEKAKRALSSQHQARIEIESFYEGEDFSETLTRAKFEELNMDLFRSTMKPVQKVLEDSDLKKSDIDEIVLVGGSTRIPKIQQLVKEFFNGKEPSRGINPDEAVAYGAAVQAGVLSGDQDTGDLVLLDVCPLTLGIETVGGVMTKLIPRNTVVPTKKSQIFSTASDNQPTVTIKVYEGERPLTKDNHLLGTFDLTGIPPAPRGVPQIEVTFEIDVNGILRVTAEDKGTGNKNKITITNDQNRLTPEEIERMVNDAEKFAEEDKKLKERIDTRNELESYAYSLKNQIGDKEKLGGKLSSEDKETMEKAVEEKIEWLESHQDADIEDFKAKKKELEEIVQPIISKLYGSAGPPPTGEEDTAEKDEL
UniProt P07996, residues 19-1170: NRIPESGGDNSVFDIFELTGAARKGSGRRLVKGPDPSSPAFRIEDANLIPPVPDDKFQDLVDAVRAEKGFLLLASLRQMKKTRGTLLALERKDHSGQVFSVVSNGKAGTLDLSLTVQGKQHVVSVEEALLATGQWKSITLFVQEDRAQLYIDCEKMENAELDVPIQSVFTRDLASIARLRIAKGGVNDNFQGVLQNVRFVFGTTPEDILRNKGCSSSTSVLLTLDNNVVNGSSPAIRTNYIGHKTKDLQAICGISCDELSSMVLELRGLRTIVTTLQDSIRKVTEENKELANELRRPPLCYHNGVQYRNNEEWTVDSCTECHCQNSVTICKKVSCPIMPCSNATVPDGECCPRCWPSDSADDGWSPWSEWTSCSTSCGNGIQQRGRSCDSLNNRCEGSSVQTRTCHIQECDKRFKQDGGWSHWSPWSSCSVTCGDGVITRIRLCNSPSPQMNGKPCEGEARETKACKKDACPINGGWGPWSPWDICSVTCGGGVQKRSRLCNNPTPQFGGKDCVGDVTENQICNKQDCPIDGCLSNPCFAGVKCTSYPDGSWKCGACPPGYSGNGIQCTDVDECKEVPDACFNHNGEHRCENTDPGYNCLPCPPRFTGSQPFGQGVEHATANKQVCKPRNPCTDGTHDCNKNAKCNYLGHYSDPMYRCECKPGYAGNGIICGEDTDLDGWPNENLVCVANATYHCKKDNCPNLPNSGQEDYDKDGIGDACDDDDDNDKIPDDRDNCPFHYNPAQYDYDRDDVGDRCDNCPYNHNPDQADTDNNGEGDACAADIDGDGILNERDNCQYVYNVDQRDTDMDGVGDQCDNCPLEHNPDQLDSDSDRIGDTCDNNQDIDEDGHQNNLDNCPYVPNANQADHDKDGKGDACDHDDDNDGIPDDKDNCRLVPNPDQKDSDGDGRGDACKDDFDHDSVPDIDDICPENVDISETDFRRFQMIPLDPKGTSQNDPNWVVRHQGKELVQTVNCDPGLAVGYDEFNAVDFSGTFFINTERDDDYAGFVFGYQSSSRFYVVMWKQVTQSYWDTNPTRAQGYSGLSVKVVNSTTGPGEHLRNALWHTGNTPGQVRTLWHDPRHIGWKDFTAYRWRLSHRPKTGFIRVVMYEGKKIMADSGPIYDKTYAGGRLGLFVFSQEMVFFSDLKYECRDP
UniProt Q99720: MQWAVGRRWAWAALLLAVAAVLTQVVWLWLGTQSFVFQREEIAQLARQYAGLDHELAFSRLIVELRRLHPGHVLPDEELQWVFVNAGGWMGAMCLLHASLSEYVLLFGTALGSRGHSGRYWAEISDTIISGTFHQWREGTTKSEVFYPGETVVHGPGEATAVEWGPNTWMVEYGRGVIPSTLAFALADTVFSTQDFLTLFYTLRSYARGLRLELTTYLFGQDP

Columns and labels:
Assay in all cases: proximity labelling
[1] = biological target: S1R-Apex (mouse Sigma 1 Receptor with V5-Apex2 fused to the C terminus) (mouse) (UniProt O55242)
[2] = biological target: S1R-Apex (mouse Sigma 1 Receptor with V5-Apex2 fused to the C terminus) (mouse) (UniProt O55242); remark: listed apart in the source
[3] = biological target: S1R-Apex (mouse Sigma 1 Receptor with V5-Apex2 fused to the C terminus) (mouse) (UniProt O55242); remark: listed apart in the source

Row | Substance | binding [1] | binding [2] | binding [3]
1 | Calnexin (from UniProt P27824 21-592) | binds | binds | –
2 | Low density lipoprotein receptor (LDLR) (from UniProt P01130 22-860) | binds | – | binds
3 | Proprotein Convertase Subtilisin/Kexin Type 9 (PCSK9) (from UniProt Q8NBP7) (enzyme) | binds | – | binds

Further lines, results first:

Row | binding [1] | binding [2] | binding [3] | Substance
4 | binds | – | – | Collagen12 (COL12A1) (from UniProt Q99715 24-3063)
5 | binds | – | – | ER chaperone BiP (GRP78) (from UniProt P11021 19-654)
6 | binds | – | binds | Thrombospondin1 (THBS1) (from UniProt P07996 19-1170)
7 | binds | – | – | endogenous Sigma 1 Receptor (S1R) (from UniProt Q99720 1-223)
